Results are given in words; binding and its absence hold for the method and conditions named. Some entries that bind do so weakly or less than the wild type.

In experiment [1] the target is T1, truncated CD123 target (D2/D3 domains), D2-D3-hCD123 (human) (UniProt P26951).
T1 sequence (looked up): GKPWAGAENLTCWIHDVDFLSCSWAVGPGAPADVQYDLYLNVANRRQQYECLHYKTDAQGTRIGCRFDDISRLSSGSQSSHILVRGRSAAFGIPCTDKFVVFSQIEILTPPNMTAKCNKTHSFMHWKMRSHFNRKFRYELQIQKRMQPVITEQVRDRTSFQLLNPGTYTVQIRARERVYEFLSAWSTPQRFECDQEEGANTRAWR
The experiment can be described thus: HTRF, purified DARPin, truncated D2-D3-hCD123, hIgG-d2 and anti-His-Tb. In general terms: TR-FRET usually uses a lanthanide donor and a delayed reading to cut background.

Experiment [2] deals with T1, truncated CD123 target (D2/D3 domains), D2-D3-hCD123 (human). The experiment can be described thus: HTRF, purified DARPin protein with truncated D2-D3-hCD123, hIgG-d2 and anti-His-Tb.

B1: DARPin® protein #1 (in TCE format) (designed binder, not shown: small tags and cut ends)
chain: MRGSHHHHHHGSDLGKKLLEAALEGQDDEVRELLKAGADVNAKDQEGYTPLHLAAALGHLEIVEVLLKAGADVNAKDSIGRTPLHLAAYKGHLEIVEVLLKAGADVNAQDLLGETPADLAAEQGHEDIAEVLQKAA
In the case of B1, the binding entry in experiment [1] and in experiment [2] was “binds” throughout.
